The supplement of paper PMC12889115
The other results are listed elsewhere or left out. These are raw signals, not scaled to a control.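 First-pass screen: polymyxin B was added at a level that permeabilizes the Salmonella outer membrane while sparing the inner membrane. DMSO wells, with and without polymyxin B, defined maximum growth. Because plates differed from one another, each plate's data were ranked separately and the compounds with the lowest OD600 were carried forward as hits.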

Test system: Salmonella enterica serovar Typhimurium SL1344
Experiment: bacterial growth OD600 after 18 h with compound and polymyxin B; higher = more bacterial growth (less inhibition)
Conditions: 50 µM, Mueller-Hinton broth

SMILES | bacterial growth OD600 (polymyxin B 1 µg/mL) | bacterial growth OD600 (polymyxin B 0.75 µg/mL)
O=C(CCc1cn[nH]c1)N1CCCC(CCc2ccccc2F)C1 (configuration not stated) | 0.885 | 
COc1cccc(CN2CCCC(O)(CN3CCCCC3)C2=O)c1 (configuration not stated) | 0.754 | 
C=CCNC(=O)c1coc(COc2ccc(OC)cc2)n1 | 0.923 | 
O=C(CCC1CCN(Cc2ccoc2)CC1)Nc1ccccc1Cl | 0.767 | 
Cc1cnc(CNCC2(O)CCCN(Cc3cccc(F)c3F)C2=O)cn1 (configuration not stated) |  | 0.935
COc1ccc(NC(=O)N2CCCC(Nc3ccc(C)c(C)c3)C2)c(OC)c1 (configuration not stated) | 0.822 | 
O=C(Nc1cccc(-c2ccc(F)cc2)c1)C1CCCN(Cc2cccnc2)C1 (configuration not stated) | 0.008 | 
COCCN(Cc1nc(-c2ccc(OC)c(OC)c2OC)no1)C(C)C | 1.19 | 
COc1ccccc1C1CN(Cc2ccc(OCCO)cc2)Cc2ccccc2O1 (configuration not stated) |  | 0.005
COc1ccc(CC2(CCC(=O)NC(c3ccccn3)C(F)(F)F)CCC(=O)N2)c(F)c1 (configuration not stated) |  | 0.872
COc1cccc(CN(C)Cc2nc(-c3ccccc3C)oc2C)c1 |  | 0.01
O=C(/C=C/c1cccc(F)c1)N1CCC(C2(c3ccccn3)NC(=O)N(CC3CCCO3)C2=O)CC1 (configuration not stated) |  | 0.913
CC(C)c1ccc(NC2CCCN(C(=O)CCN3Cc4ccccc4C3=O)C2)cc1 (configuration not stated) | 0.576 | 
Cc1ccccc1CC(C1CCN(C(=O)c2ccc3ccccc3c2)CC1)N(C)C(=O)Cn1cccn1 (configuration not stated) |  | 0.812
O=C(CCC1(Cc2ccc3ccccc3c2)CCC(=O)N1)NCc1cnn(-c2ccc(F)cc2)c1 (configuration not stated) |  | 0.892
COc1ccccc1NC(=O)Nc1ccnn1C1CCN(C(=O)CCC2(C)CC2)CC1 |  | 0.729

Part of the list above in order of molar mass, low to high:
SMILES | bacterial growth OD600 (polymyxin B 1 µg/mL) | bacterial growth OD600 (polymyxin B 0.75 µg/mL)
O=C(CCC1CCN(Cc2ccoc2)CC1)Nc1ccccc1Cl | 0.767 | 
COc1ccc(NC(=O)N2CCCC(Nc3ccc(C)c(C)c3)C2)c(OC)c1 (configuration not stated) | 0.822 | 
O=C(Nc1cccc(-c2ccc(F)cc2)c1)C1CCCN(Cc2cccnc2)C1 (configuration not stated) | 0.008 | 

(next part)

SMILES | bacterial growth OD600 (polymyxin B 1 µg/mL) | bacterial growth OD600 (polymyxin B 0.75 µg/mL)
CCOC(=O)C1(Cc2ccc(F)cc2)CCCN(C(=O)c2n[nH]c(=O)c3ccccc23)C1 (configuration not stated) | 1.09 | 
CCOC(=O)N1CCN(C(=O)c2cc(NC(C)=O)c3c(c2)nc(-c2ccccc2F)n3CC)CC1 |  | 1.05
COCc1ccc(C(=O)NCc2nc(-c3cccc(NC(=O)C4CCCN(C)C4)c3)oc2C)s1 (configuration not stated) |  | 0.904
Cc1ccccc1N1C(=O)CN(Cc2c(C)n(C)n(-c3ccccc3)c2=O)CC1C (configuration not stated) |  | 0.829
COCc1ccc(C(=O)N2CCc3[nH]nc(-c4ccc(C(F)(F)F)cc4)c3C2)o1 |  | 0.636
COc1cccc(-c2ccnc(-n3ncc(C(=O)N4CCN(c5ccccc5)CC4)c3C3CC3)n2)c1 |  | 0.766
OCC1(Cc2ccccc2Cl)CCN(CC#Cc2ccccc2)CC1 | 0.503 | 
CCc1csc(CCNC(=O)C2CCC(=O)N(Cc3cccc(C(F)(F)F)c3)C2)n1 (configuration not stated) | 0.849 | 
COc1cccc(OC)c1CNC1COc2c(cccc2OC)C1 (configuration not stated) | 0.857 | 
Cc1cc(CNC(=O)Cn2cncn2)c2[nH]c(-c3ccccc3)c(C)c2c1 | 0.939 | 
CCn1cc(CNc2nc3nonc3nc2N2CCCCCC2)cn1 | 0.883 | 
CC1(C)Cc2nc(N3CCOCC3)ncc2C(NC(=O)CCc2ccccn2)C1 (configuration not stated) |  | 0.866
Cc1nc(C(=O)N2CCOc3ccc(CN4CCN(c5ccc(F)cc5)CC4)cc3C2)cs1 |  | 0.748
CCOC(=O)C1(C/C=C/c2ccccc2)CCCN(C(=O)C(=O)c2ccccc2)C1 (configuration not stated) | 0.679 | 
O=C1CCCN1CC1CCN(C(=O)c2ccc(NC3CC3)nc2)CC1 | 1.01 | 
COc1ccc(CNC(=O)CCC2CCCN(Cc3cc4ccccc4o3)C2)c(OC)c1 (configuration not stated) | 1.14 | 
